Article PMC7967059
These are yes or no findings as the source states them, for the method shown. Binding seen in cells or lysates may run through a third protein. Some entries that bind do so weakly or less than the wild type. For part of these data: Sequences can lack the tags named with a protein. Blank lines part the entries; values can stand above or below the molecule they belong to.

Sequences of proteins named here, by UniProt entry; tags and fusion partners are left off.
UniProt P16045: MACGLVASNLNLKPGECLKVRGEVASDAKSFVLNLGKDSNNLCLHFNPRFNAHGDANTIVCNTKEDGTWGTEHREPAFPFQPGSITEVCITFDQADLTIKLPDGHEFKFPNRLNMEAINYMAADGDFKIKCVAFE

What was measured:
[1] = molecular target: T1, CD146, endogenous in mouse adipose tissue (mouse (endogenous in WAT and BAT)) (UniProt Q8R2Y2); assay: co-IP; mouse BAT (Figure S12E); conditions for BAT not told
T1 sequence: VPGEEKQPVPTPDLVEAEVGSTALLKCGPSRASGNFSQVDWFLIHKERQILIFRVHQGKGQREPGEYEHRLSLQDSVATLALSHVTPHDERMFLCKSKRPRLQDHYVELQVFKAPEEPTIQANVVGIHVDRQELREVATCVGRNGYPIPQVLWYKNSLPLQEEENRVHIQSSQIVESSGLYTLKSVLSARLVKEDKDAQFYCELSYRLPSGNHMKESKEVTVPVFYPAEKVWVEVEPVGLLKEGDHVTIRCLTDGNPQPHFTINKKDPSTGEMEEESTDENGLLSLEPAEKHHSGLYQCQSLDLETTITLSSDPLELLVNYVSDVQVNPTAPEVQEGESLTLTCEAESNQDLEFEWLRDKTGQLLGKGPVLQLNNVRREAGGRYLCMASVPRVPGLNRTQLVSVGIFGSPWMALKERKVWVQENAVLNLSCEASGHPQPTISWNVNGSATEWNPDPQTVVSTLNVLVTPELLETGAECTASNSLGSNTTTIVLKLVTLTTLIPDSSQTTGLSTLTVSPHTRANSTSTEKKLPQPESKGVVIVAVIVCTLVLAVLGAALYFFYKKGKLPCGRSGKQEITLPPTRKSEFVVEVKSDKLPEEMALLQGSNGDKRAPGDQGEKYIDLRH

[2] = molecular target: T2, full‐length CD146 fused with Flag‐tag (UniProt P43121); assay: co-IP; HEK293 cells cotransfected with ANGPTL2 and full‐length or truncated Flag‐CD146; RIPA lysate; anti‐FLAG M2 agarose beads overnight at 4 °C; western blot
T2 sequence: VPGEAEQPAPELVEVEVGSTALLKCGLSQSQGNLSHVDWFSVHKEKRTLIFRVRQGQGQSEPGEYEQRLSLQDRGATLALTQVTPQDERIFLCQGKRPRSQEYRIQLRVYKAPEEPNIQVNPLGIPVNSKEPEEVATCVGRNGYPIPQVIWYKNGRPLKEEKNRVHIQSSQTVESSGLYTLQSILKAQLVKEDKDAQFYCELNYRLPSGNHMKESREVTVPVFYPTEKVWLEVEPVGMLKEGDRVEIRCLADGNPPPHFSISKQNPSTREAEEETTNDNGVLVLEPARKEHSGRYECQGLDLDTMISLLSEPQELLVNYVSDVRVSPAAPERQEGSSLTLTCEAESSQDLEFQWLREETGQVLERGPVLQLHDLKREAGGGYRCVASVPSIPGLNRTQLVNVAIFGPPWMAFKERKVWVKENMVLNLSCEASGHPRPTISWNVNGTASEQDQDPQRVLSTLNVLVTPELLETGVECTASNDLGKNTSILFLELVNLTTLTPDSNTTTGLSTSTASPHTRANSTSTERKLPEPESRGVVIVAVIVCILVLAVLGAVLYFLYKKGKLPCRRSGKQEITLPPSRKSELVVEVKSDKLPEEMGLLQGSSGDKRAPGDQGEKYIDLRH

[3] = molecular target: T1, CD146, endogenous in mouse adipose tissue (mouse (endogenous in WAT and BAT)); assay: co-IP; epididymal adipose tissue (WAT) of mice fed ND or HFD (lean and obese), RIPA lysate; specific antibodies and protein G PLUS‐agarose overnight at 4 °C; wash with 1 M NaCl, 1% NP‐40; western blot

binding [1]: binds
Molecule: galectin‐1, endogenous in mouse BAT (from UniProt P16045 1-135) (ligand)

binding [2]: binds
B1: ANGPTL2 coexpressed in 293 cells (ligand, UniProt Q9UKU9 23-493)
chain: QEDGFEGTEEGSPREFIYLNRYKRAGESQDKCTYTFIVPQQRVTGAICVNSKEPEVLLENRVHKQELELLNNELLKQKRQIETLQQLVEVDGGIVSEVKLLRKESRNMNSRVTQLYMQLLHEIIRKRDNALELSQLENRILNQTADMLQLASKYKDLEHKYQHLATLAHNQSEIIAQLEEHCQRVPSARPVPQPPPAAPPRVYQPPTYNRIINQISTNEIQSDQNLKVLPPPLPTMPTLTSLPSSTDKPSGPWRDCLQALEDGHDTSSIYLVKPENTNRLMQVWCDQRHDPGGWTVIQRRLDGSVNFFRNWETYKQGFGNIDGEYWLGLENIYWLTNQGNYKLLVTMEDWSGRKVFAEYASFRLEPESEYYKLRLGRYHGNAGDSFTWHNGKQFTTLDRDHDVYTGNCAHYQKGGWWYNACAHSNLNGVWYRGGHYRSRYQDGVYWAEFRGGSYSLKKVVMMIRPNPNTFH

binding [3]: binds
B2: ANGPTL2, endogenous in mouse WAT (ligand, UniProt Q9R045 20-493)
chain: ATGPEADVEGTEDGSQREYIYLNRYKRAGESPDKCTYTFIVPQQRVTGAICVNSKEPEVHLENRVHKQELELLNNELLKQKRQIETLQQLVEVDGGIVSEVKLLRKESRNMNSRVTQLYMQLLHEIIRKRDNALELSQLENRILNQTADMLQLASKYKDLEHKFQHLAMLAHNQSEVIAQLEEHCQRVPAARPMPQPPPAAPPRVYQPPTYNRIINQISTNEIQSDQNLKVLPPSLPTMPALTSLPSSTDKPSGPWRDCLQALEDGHSTSSIYLVKPENTNRLMQVWCDQRHDPGGWTVIQRRLDGSVNFFRNWETYKQGFGNIDGEYWLGLENIYWLTNQGNYKLLVTMEDWSGRKVFAEYASFRLEPESEYYKLRLGRYHGNAGDSFTWHNGKQFTTLDRDHDVYTGNCAHYQKGGWWYNACAHSNLNGVWYRGGHYRSRYQDGVYWAEFRGGSYSLKKVVMMIRPNPNTFH
